Assay results taken from paper doi:10.1101/2022.07.25.501445.
Results are given in words; binding and its absence hold for the method and conditions named. Binding seen in cells or lysates may run through a third protein. Here binding means that the protein was enriched with, or labelled near, the bait; the list need not be complete.

Sequences of proteins named here, by UniProt entry; tags and fusion partners are left off.
UniProt Q9BXC0: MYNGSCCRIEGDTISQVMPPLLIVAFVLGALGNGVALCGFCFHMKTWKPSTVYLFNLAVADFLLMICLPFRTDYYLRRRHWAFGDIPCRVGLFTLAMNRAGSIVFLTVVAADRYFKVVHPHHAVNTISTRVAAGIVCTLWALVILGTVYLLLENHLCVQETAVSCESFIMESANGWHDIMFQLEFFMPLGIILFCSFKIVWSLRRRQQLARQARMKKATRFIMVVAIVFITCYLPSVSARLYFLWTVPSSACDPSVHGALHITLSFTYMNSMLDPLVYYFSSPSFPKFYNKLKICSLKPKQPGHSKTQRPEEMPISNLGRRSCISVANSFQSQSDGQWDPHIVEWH
UniProt Q9C086: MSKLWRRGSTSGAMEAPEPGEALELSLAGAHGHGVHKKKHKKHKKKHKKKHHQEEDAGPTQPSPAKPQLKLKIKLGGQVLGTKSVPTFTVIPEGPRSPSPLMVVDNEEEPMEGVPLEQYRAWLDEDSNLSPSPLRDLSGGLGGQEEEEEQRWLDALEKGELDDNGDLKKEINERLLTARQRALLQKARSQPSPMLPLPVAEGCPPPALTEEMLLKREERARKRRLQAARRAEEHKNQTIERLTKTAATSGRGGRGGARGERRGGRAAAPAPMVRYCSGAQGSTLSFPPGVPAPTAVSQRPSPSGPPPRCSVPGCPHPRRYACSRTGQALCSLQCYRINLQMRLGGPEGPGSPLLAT
UniProt Q96L73: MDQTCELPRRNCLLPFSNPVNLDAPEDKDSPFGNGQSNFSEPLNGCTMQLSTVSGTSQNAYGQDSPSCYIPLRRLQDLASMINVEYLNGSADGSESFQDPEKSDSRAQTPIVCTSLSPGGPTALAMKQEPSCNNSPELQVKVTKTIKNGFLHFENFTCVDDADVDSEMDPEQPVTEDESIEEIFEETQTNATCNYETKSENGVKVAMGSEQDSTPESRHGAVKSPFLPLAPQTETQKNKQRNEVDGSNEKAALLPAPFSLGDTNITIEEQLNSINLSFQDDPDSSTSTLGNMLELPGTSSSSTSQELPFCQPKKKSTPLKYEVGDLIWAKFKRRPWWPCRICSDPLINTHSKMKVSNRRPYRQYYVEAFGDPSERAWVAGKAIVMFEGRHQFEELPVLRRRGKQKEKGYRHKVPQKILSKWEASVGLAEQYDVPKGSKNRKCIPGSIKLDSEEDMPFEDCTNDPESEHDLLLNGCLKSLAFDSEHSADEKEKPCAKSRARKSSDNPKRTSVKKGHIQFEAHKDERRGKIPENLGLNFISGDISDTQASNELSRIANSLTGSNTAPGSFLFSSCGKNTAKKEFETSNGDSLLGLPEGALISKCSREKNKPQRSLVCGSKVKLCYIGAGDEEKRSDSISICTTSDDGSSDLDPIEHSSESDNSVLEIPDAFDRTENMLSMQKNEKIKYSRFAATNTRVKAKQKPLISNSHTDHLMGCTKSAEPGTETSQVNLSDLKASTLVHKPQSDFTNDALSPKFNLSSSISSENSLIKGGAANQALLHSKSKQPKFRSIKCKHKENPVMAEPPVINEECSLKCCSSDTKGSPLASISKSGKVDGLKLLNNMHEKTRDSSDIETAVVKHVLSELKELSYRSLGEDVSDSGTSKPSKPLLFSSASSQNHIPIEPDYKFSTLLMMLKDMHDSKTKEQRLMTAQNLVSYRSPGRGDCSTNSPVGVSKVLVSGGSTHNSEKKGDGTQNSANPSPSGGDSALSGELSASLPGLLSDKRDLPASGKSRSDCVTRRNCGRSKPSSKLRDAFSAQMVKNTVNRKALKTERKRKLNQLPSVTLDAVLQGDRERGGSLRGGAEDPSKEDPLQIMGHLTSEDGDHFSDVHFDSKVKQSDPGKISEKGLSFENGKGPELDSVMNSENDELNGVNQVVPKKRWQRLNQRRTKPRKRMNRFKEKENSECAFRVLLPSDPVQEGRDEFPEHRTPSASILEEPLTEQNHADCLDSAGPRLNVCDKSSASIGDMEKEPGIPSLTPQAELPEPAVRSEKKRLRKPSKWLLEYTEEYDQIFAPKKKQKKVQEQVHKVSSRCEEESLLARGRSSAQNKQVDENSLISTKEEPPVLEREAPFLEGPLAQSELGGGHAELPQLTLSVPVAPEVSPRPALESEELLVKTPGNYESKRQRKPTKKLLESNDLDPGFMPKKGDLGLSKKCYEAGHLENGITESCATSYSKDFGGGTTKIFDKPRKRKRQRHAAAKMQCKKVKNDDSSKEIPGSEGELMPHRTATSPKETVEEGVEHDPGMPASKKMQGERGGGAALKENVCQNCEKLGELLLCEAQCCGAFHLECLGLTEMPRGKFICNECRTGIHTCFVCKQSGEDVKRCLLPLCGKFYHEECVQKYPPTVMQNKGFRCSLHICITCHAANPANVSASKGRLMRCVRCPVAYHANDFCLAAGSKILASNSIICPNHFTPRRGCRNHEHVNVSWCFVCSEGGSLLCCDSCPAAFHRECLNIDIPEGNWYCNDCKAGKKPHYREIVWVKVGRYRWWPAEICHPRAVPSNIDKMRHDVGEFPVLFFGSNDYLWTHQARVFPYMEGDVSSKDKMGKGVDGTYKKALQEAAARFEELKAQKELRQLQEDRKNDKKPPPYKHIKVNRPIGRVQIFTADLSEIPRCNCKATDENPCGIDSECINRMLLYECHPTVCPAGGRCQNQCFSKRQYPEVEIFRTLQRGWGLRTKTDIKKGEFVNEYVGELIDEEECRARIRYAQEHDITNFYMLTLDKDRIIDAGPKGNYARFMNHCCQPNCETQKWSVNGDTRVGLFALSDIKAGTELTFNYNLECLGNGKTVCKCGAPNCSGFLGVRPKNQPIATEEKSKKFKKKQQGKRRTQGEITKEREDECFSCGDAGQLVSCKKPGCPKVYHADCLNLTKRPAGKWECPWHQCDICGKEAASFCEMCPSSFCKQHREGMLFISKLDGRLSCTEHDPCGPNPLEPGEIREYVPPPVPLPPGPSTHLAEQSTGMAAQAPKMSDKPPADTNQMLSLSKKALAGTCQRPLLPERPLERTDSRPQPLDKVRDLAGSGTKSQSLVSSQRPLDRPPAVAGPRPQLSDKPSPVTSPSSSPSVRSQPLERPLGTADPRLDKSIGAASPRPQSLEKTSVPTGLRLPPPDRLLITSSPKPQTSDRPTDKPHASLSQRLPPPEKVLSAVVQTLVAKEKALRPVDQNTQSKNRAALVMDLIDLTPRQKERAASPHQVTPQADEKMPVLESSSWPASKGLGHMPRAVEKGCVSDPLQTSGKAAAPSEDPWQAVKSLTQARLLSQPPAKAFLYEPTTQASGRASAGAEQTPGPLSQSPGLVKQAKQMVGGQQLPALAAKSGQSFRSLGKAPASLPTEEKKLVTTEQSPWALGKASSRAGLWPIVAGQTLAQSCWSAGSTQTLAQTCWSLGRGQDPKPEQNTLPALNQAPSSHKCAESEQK
UniProt O60264: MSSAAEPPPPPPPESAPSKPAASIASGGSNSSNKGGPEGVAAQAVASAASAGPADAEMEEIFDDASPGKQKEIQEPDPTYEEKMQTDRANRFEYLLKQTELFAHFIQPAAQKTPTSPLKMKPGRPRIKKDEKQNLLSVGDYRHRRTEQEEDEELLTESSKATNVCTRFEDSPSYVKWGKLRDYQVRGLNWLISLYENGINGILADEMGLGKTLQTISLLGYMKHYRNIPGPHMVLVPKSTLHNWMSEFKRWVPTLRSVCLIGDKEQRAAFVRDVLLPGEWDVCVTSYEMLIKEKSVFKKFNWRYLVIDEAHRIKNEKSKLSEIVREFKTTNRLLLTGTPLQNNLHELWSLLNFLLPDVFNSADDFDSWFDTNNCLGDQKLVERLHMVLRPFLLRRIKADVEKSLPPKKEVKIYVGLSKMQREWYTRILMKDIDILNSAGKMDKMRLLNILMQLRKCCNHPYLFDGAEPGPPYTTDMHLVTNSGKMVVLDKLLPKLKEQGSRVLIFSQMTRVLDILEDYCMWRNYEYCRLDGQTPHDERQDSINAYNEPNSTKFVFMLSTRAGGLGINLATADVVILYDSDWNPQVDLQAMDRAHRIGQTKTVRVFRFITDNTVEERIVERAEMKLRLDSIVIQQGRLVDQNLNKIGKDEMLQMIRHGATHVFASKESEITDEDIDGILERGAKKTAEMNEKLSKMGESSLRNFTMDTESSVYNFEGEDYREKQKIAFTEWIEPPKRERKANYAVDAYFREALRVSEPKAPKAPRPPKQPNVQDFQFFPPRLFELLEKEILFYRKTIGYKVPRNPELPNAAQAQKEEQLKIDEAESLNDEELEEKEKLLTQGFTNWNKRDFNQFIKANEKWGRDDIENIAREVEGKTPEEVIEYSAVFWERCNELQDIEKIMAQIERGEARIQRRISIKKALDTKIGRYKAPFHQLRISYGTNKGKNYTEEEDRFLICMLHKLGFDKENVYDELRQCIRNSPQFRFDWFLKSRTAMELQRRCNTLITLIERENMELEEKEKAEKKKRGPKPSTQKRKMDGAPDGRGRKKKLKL
UniProt Q92922: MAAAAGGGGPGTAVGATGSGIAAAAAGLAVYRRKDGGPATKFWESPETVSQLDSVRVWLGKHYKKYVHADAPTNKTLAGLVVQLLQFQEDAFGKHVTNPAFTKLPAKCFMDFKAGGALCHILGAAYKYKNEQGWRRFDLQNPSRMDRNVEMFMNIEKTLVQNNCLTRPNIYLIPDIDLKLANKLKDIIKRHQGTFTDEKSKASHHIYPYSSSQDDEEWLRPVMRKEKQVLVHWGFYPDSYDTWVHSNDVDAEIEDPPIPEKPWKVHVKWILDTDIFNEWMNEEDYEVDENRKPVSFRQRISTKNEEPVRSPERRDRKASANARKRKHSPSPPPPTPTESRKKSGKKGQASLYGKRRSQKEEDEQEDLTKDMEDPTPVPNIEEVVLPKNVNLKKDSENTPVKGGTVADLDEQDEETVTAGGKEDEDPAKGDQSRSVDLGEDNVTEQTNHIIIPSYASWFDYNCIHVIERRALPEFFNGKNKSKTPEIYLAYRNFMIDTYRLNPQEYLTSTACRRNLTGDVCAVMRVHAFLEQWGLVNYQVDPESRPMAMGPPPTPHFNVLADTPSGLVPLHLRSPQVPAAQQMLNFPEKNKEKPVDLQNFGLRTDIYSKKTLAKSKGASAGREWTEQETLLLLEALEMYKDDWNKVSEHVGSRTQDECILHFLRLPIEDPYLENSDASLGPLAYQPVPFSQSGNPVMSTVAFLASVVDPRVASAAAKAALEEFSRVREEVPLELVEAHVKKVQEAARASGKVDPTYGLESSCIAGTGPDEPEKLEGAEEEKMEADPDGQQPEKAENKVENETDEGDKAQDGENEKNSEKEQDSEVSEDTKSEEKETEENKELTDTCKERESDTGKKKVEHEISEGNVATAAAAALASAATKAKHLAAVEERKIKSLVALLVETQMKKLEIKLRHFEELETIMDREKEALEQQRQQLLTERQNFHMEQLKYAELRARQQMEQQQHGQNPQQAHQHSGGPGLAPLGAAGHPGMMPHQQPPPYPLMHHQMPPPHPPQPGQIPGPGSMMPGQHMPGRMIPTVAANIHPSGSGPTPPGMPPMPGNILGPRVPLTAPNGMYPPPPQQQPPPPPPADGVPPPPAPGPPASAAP

Target: HCAR1-BioID2-HA fusion protein (hydroxycarboxylic acid receptor 1 in the MCS-13X Linker-BioID2-HA vector) (human) (UniProt Q9BXC0)
Experiment: proximity labelling

Row | binding | Substance
1 | binds | INO80b (from UniProt Q9C086 1-356)
2 | binds | NSD1 (from UniProt Q96L73 1-2696) (enzyme)
3 | binds | SMARCA5 (from UniProt O60264 1-1052)
4 | binds | SMARCC1 (from UniProt Q92922 1-1105)
